Record: PubChem BioAssay AID686937 (Drosophila RNAi Screening Center, 2013)
Purpose: 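Knock-downs that reduce output of a secreted reporter enzyme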 (primary screen). Cell system: Drosophila S2 cells expressing secreted horseradish peroxidase. Knock-down reagent: long dsRNA against Drosophila genes. Time to read-out: about 5.5 days (5 days dsRNA, then 12 h reporter induction). Conditions: reporter expression induced after 5 days of dsRNA, read 12 h later; inducer not stated. Detection: 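After 5 days of dsRNA and 12 h of reporter induction, medium peroxidase read by chemiluminescence and scored as per-plate z-score; higher values mean more reporter released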. Direction: z-score: higher = more reporter secreted into medium.
The screen tested about 23,000 reagents; this is a random part of those that have a named target and a result. 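Reduced-secretion tags in replicate 1 do not always agree with the z-scores; no criterion for assigning the tags was given.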 Reagents against one gene are numbered here. Further read-outs or replicates are left out here. Reagent sequences are not shown. Not stated in the record: the amount of reagent.

Against temp (tempura), the entry reads z-score, replicate 1 = 0.32.
sinah (sina homologue) #1 scored z-score, replicate 1 = 0.32.
sinah (sina homologue) #2 gave z-score, replicate 1 = -0.86.
Against CAH8 (Carbonic anhydrase 8), the values are z-score, replicate 1 = 0.26.
Against 5-HT7 (5-hydroxytryptamine (serotonin) receptor 7), the values are z-score, replicate 1 = 0.07.
For CG11147, the values are z-score, replicate 1 = 0.35.
With knock-down of Elal (Elastin-like), the screen gave z-score, replicate 1 = 0.33.
For cl (clot) the deposit lists z-score, replicate 1 = 0.23.
CG31206 showed z-score, replicate 1 = 0.23.
After knock-down of MsR1 (Myosuppressin receptor 1), the record shows z-score, replicate 1 = 0.18.
Past1 (Putative Achaete Scute Target 1) showed z-score, replicate 1 = 0.38.
Hayan #1 scored z-score, replicate 1 = 0.22.
With knock-down of Hayan #2, the record shows z-score, replicate 1 = 0.32.
After knock-down of CG18748, the screen gave z-score, replicate 1 = 0.43.
Against CG5160 the deposit lists z-score, replicate 1 = 0.15.
Against puf (puffyeye) the deposit lists z-score, replicate 1 = -0.07.
Against Stam (Signal transducing adaptor molecule), the entry reads z-score, replicate 1 = 0.18.
Knock-down of Corp (Companion of reaper) came out at: z-score, replicate 1 = 0.3.
Silencing of CG14183 came out at: z-score, replicate 1 = 0.46.
Depletion of CG32523 gave: z-score, replicate 1 = 0.18.
With knock-down of Nup214 (Nucleoporin 214kD) the results were z-score, replicate 1 = -1.74; phenotype, replicate 1 = reduced secretion.
Knock-down of ksr (kinase suppressor of ras) resulted in: z-score, replicate 1 = -0.48.
CG14551 gave z-score, replicate 1 = 0.13.
With knock-down of PGRP-SD (Peptidoglycan recognition protein SD), the record shows z-score, replicate 1 = 0.19.
Silencing of CG31344 gave: z-score, replicate 1 = 0.22.
LBR (Lamin B receptor) gave z-score, replicate 1 = 0.17.
Depletion of E(spl)m3-HLH (Enhancer of split m3, helix-loop-helix) came out at: z-score, replicate 1 = -1.65; phenotype, replicate 1 = reduced secretion.
With knock-down of CG34174 the results were z-score, replicate 1 = 0.25.
Silencing of COX4 (Cytochrome c oxidase subunit 4) gave: z-score, replicate 1 = -0.42.
With knock-down of CG31820, the screen gave z-score, replicate 1 = 0.86.
After knock-down of sgg (shaggy) #1, the screen gave z-score, replicate 1 = 0.38.
Against sgg (shaggy) #2, the values are z-score, replicate 1 = 0.36.
sgg (shaggy) #3 scored z-score, replicate 1 = 0.18.
With knock-down of ATPsynE (ATP synthase, subunit E), the record shows z-score, replicate 1 = -0.06.
With knock-down of Nplp4 (Neuropeptide-like precursor 4), the screen gave z-score, replicate 1 = 0.43.
Depletion of Ski6 gave: z-score, replicate 1 = -0.38.
Knock-down of CG7573 came out at: z-score, replicate 1 = 0.45.
After knock-down of akirin, the record shows z-score, replicate 1 = -0.55.
Silencing of CG30184 resulted in: z-score, replicate 1 = -0.72.
Ugt316A1 (UDP-glycosyltransferase family 316 member A1) showed z-score, replicate 1 = 0.21.

Part of the list above, reformatted.
gene knocked down	dsRNA no.	z-score, replicate 1	phenotype, replicate 1
COX4 (Cytochrome c oxidase subunit 4)	1	-0.42	
CG31820	1	0.86	
sgg (shaggy)	1	0.38	
